Results taken from paper PMC3471868.
No constants are given. Whether binding was seen depends on the method and setting. In cells and extracts the contact can be indirect. Some entries that bind do so weakly or less than the wild type. Where a sequence is shown, tags or fusion partners need not be part of it.

Protein sequences, listed by entry. Tags and fused reporters are not part of them.
UniProt P45973: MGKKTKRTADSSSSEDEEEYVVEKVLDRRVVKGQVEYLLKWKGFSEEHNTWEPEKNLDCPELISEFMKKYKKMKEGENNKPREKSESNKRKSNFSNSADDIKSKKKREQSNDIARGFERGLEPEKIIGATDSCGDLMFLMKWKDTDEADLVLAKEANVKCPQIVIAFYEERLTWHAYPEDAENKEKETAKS
UniProt P83916: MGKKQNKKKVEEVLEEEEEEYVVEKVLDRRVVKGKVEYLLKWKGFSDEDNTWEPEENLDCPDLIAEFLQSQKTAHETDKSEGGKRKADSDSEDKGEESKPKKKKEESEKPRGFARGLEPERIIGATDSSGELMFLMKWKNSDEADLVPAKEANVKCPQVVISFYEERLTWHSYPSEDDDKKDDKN
UniProt Q13185: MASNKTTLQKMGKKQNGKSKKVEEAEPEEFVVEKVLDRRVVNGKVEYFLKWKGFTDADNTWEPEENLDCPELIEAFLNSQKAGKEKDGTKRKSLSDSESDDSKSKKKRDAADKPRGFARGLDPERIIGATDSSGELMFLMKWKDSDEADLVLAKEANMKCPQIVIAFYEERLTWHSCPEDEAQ

These substances were tested against T1, GST-N’-RNF123, wild-type N-terminal segment of RNF123 (residues 59 to 326) (UniProt Q5XPI4) (assay: pull-down; GST or GST-N’-RNF123 (wild type or V313D) on glutathione agarose beads, incubated with pre-cleared HeLa lysate (50 mM Tris-Cl pH 7.5, 150 mM NaCl, 10% glycerol, 0.5% NP-40) for 12 h at 4°C; bound proteins detected by western blot with antibodies to HP1 proteins; only the target purified).
T1 sequence: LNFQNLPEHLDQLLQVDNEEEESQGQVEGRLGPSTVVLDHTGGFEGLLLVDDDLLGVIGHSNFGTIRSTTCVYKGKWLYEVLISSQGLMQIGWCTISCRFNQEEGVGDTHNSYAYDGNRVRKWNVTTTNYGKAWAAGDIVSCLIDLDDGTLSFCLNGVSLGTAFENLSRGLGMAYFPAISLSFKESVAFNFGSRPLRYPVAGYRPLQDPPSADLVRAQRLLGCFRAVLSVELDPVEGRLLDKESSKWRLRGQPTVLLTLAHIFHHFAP

| binding | Substance |
| --- | --- |
| binds | heterochromatin protein 1α (from UniProt P45973 1-191) |
| binds | heterochromatin protein 1β (from UniProt P83916 1-185) |
| binds | heterochromatin protein 1γ (from UniProt Q13185 1-183) |
